Further values from the same series stand in other lists.
Test: Continuous infusion study pharmacokinetics (plasma)
Type: in vivo, human
Details: Rate 1 mg/h, individual subjects, listed as EMD 121974
Experimental: Patients with solid tumors received a continuous infusion of 1 mg/h, 2 mg/h, 4 mg/h, 8 mg/h or 12 mg/h. with a weekly change of infusion bag.
Blood samples were taken on Day 1 (first dose) at pre-dose and 2 h after start of infusion and then weekly just before change of infusion bag and 2 hours thereafter for the first 4 weeks.
The following pharmacokinetic parameters were derived at Merck KGaA. Darmstadt, Germany, by mathematical methods using Kinetica Version 4.1.1.
CL the total body clearance of EMD 121974 from plasma Css plasma concentration at steady state ke elimination rate constant Rate infusion rate t1/2, half life V Volume of distribution
Css, the plasma concentration at steady state, has been estimated by the arithmetic mean of all concentration values from time point 168 h to 506 h per patient.
From Css and t1/2 the PK parameters CL, ke and V were calculated as follows: […]

CC(C)[C@H]1C(=O)N[C@@H](CCCN=C(N)N)C(=O)NCC(=O)N[C@@H](CC(=O)O)C(=O)N[C@H](Cc2ccccc2)C(=O)N1C [Cilengitide, cyclo-(Arg-Gly-Asp-DPhe-NMeVal)]
EMD 121974 Concentrations (2 h): 35.40 ng/mL
EMD 121974 Concentrations (168 h): 72.20 ng/mL
EMD 121974 Concentrations (170 h): 33.40 ng/mL
EMD 121974 Concentrations (336 h): 130.00 ng/mL
EMD 121974 Concentrations (338 h): 97.90 ng/mL
